Data on six molecules can be found in PMC7878923.

The chains behind the UniProt entries cited, without tags or fusion partners. Where a name states a change or a piece, a line headed by the entry shows the natural chain unless it says otherwise.
UniProt O65655: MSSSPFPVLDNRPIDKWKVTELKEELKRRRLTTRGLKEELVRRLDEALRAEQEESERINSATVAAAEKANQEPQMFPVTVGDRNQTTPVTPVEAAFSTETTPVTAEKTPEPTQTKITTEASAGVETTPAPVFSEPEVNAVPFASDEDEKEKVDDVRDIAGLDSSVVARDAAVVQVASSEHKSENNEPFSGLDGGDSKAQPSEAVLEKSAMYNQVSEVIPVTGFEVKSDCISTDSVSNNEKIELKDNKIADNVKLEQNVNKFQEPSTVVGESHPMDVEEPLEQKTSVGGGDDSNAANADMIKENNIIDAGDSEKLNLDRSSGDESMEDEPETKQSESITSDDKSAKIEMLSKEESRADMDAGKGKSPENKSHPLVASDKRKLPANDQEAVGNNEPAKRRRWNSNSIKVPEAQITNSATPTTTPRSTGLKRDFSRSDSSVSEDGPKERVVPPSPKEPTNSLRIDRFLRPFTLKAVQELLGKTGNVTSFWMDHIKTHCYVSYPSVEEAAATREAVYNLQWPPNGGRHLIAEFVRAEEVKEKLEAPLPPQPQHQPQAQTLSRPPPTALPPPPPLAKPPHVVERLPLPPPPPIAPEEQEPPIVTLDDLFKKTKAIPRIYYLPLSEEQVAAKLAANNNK
UniProt Q9SSD2: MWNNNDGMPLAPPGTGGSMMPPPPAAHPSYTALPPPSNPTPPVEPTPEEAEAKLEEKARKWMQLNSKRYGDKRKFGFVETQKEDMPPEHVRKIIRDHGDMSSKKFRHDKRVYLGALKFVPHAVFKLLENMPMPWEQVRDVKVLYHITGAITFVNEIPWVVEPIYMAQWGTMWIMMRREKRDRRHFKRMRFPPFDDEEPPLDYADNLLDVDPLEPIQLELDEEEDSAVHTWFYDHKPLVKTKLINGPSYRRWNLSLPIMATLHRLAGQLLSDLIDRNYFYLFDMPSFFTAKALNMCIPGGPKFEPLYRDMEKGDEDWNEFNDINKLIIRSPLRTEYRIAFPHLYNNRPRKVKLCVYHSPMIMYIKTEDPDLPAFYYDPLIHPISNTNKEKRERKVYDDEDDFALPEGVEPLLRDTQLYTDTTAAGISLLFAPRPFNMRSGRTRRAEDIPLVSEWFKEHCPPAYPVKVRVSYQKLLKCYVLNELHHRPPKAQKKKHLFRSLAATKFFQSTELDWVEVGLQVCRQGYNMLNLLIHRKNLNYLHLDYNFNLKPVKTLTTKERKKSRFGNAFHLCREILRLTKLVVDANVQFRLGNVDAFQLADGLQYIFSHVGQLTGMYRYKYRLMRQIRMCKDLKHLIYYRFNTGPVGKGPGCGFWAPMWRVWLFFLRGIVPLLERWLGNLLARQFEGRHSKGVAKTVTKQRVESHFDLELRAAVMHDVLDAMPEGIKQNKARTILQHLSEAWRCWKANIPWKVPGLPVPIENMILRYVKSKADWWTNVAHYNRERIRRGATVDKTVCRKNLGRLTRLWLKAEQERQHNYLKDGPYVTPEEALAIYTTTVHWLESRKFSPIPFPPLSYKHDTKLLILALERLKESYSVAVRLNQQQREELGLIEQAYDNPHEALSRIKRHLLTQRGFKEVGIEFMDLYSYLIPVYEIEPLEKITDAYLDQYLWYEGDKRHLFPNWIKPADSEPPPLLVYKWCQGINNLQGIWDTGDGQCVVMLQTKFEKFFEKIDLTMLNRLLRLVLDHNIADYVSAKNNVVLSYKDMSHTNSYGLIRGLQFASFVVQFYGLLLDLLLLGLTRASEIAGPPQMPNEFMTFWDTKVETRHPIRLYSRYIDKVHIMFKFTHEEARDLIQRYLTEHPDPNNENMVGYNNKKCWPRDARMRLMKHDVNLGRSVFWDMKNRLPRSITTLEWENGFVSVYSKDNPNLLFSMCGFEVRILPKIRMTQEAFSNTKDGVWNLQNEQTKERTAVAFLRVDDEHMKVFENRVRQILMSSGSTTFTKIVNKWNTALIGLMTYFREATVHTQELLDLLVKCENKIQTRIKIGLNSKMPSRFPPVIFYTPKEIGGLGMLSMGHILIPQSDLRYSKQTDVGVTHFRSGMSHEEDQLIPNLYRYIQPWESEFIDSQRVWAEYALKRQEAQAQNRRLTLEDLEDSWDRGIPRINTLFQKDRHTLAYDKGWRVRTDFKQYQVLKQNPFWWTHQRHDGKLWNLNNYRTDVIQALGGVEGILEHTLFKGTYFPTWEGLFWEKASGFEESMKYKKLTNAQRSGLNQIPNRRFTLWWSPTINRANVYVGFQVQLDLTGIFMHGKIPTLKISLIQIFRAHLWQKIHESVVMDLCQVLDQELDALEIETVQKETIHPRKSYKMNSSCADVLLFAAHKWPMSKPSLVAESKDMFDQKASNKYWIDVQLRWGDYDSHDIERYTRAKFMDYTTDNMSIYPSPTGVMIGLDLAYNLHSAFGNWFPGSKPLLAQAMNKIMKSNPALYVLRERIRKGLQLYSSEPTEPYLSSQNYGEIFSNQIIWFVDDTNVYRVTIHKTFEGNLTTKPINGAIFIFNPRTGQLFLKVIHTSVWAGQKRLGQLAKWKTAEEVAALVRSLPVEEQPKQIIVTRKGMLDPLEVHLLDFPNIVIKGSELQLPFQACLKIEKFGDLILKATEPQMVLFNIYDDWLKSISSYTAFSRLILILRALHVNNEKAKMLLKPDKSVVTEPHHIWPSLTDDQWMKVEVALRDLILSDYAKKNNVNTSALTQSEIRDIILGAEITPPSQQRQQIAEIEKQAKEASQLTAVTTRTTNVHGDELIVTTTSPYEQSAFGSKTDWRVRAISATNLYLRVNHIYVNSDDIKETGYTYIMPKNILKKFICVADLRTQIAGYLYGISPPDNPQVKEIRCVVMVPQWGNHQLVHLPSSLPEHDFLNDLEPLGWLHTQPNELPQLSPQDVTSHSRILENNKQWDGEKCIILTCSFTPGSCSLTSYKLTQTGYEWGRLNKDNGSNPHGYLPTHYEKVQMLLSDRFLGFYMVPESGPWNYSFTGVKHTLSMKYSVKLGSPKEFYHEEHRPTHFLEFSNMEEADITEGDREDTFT

Like-named read-outs stand apart in the source and are kept apart here. These are yes or no findings as the source states them, for the method shown. Binding seen in cells or lysates may run through a third protein. Here binding means that the protein was enriched with, or labelled near, the bait; the list need not be complete. For some assays here: No binding means not detected with the bait.

The target in assay [1] is AtACINUS-GFP (Arabidopsis thaliana) (UniProt O65655). The assay is described as follows: affinity purification with mass spectrometry; label-free IP-MS: extracts of 7-day-old AtACINUS-GFP/acinus-2 seedlings; modified LaG16-LaG2 anti-GFP nanobody on Dynabeads, 3 h at 4 °C; MOPS buffer pH 7.6, 150 mmol/L NaCl, 1% Triton X-100, 20 µmol/L PUGNAc; enrichment against TAP-GFP control (FDR = 0.01, S0 = 2); three biological replicates.

Assay [2] has the same target. The description is as above. This is another data set of the same source.
For assay [3], the target named is AtACINUS (Arabidopsis thaliana (endogenous in seedlings)). Description: affinity purification with mass spectrometry; SILIA (15N) quantitative IP-MS: extracts of 2-week-old WT and acinus-2 seedlings; anti-AtACINUS antibody 1 h at 4 °C, then protein A agarose beads; MOPS buffer pH 7.6, 150 mmol/L NaCl, 1% Triton X-100; enrichment in WT against acinus-2; two replicates with switched labels.

Consider PRP8 (from UniProt Q9SSD2 1-2359), for which the binding entry in assay [1] was “binds”.

B1: MAC3A (protein, UniProt Q94BR4 1-523)
chain: MNCAISGEVPEEPVVSKKSGLLYEKRLIQTHISDYGKCPVTGEPHTLDDIVPIKTGKIVKPKPLHTASIPGLLGTFQTEWDSLMLSNFALEQQLHTARQELSHALYQHDAACRVIARLKKERDESRQLLAEAERQLPAAPEVATSNAALSNGKRGIDDGEQGPNAKKMRLGISAEVITELTDCNAALSQQRKKRQIPKTLASVDALEKFTQLSSHPLHKTNKPGIFSMDILHSKDVIATGGIDTTAVLFDRPSGQILSTLTGHSKKVTSIKFVGDTDLVLTASSDKTVRIWGCSEDGNYTSRHTLKDHSAEVRAVTVHATNKYFVSASLDSTWCFYDLSSGLCLAQVTDASENDVNYTAAAFHPDGLILGTGTAQSIVKIWDVKSQANVAKFGGHNGEITSISFSENGYFLATAALDGVRLWDLRKLKNFRTFDFPDANSVEFDHSGSYLGIAASDIRVFQAASVKAEWNPIKTLPDLSGTGKATSVKFGLDSKYIAVGSMDRNLRIFGLPDDDNTEDSAQDS
Consider B1, for which the binding entry in assay [2] and in assay [3] was “binds” throughout.

B2: SPINDLY (SPY) (enzyme, UniProt Q96301 1-914)
chain: MVGLEDDTERERSPVVENGFSNGSRSSSSSAGVLSPSRKVTQGNDTLSYANILRARNKFADALALYEAMLEKDSKNVEAHIGKGICLQTQNKGNLAFDCFSEAIRLDPHNACALTHCGILHKEEGRLVEAAESYQKALMADASYKPAAECLAIVLTDLGTSLKLAGNTQEGIQKYYEALKIDPHYAPAYYNLGVVYSEMMQYDNALSCYEKAALERPMYAEAYCNMGVIYKNRGDLEMAITCYERCLAVSPNFEIAKNNMAIALTDLGTKVKLEGDVTQGVAYYKKALYYNWHYADAMYNLGVAYGEMLKFDMAIVFYELAFHFNPHCAEACNNLGVLYKDRDNLDKAVECYQMALSIKPNFAQSLNNLGVVYTVQGKMDAAASMIEKAILANPTYAEAFNNLGVLYRDAGNITMAIDAYEECLKIDPDSRNAGQNRLLAMNYINEGLDDKLFEAHRDWGWRFTRLHPQYTSWDNLKDPERPITIGYISPDFFTHSVSYFIEAPLTHHDYTKYKVVVYSAVVKADAKTYRFRDKVLKKGGVWKDIYGIDEKKIASMVREDKIDILVELTGHTANNKLGTMACRPAPVQVTWIGYPNTTGLPTVDYRITDSLADPPDTKQKQVEELVRLPDCFLCYTPSPEAGPVCPTPALSNGFVTFGSFNNLAKITPKVLQVWARILCAVPNSRLVVKCKPFCCDSIRQRFLTTLEQLGLESKRVDLLPLILFNHDHMQAYSLMDISLDTFPYAGTTTTCESLYMGVPCVTMAGSVHAHNVGVSLLTKVGLGHLVAKNEDEYVQLSVDLASDVTALSKLRMSLRDLMAGSPVCNGPSFAVGLESAYRNMWKKYCKGEVPSLRRMEMLQKEVHDDPLISKDLGPSRVSVTGEATPSLKANGSAPVPSSLPTQSPQLSKRMDSTS
As to B2, the binding entry in assay [2] and in assay [3] was “no binding” throughout.

B3: MAC3B (protein, UniProt O22785 1-525)
chain: MNCAISGEVPVEPVVSTKSGLLFERRLIERHISDYGKCPVTGEPLTIDDIVPIKTGEIIKPKTLHTASIPGLLGTFQNEWDGLMLSNFALEQQLHTARQELSHALYQHDSACRVIARLKKERDEARQLLAEVERHIPAAPEAVTANAALSNGKRAAVDEELGPDAKKLCPGISAEIITELTDCNAALSQKRKKRQIPQTLASIDTLERFTQLSSHPLHKTNKPGICSMDILHSKDVIATGGVDATAVLFDRPSGQILSTLTGHSKKVTSVKFVGDSDLVLTASADKTVRIWRNPGDGNYACGYTLNDHSAEVRAVTVHPTNKYFVSASLDGTWCFYDLSSGSCLAQVSDDSKNVDYTAAAFHPDGLILGTGTSQSVVKIWDVKSQANVAKFDGHTGEVTAISFSENGYFLATAAEDGVRLWDLRKLRNFKSFLSADANSVEFDPSGSYLGIAASDIKVYQTASVKAEWNLIKTLPDLSGTGKATCVKFGSDAQYVAVGSMDRNLRIFGLPGDEKANVDDDSAQDS
For the molecule B3, the binding entry in assay [2] and in assay [3] was “binds” throughout.

B4: SECRET AGENT (SEC) (enzyme, UniProt Q9M8Y0 1-977)
chain: MISSKNGAAMISRPVFLSDRVDEVFSRKLDLSVSSSSSSSLLQQFNKTHEGDDDARLALAHQLYKGGDFKQALEHSNMVYQRNPLRTDNLLLIGAIYYQLQEYDMCIARNEEALRIQPQFAECYGNMANAWKEKGDTDRAIRYYLIAIELRPNFADAWSNLASAYMRKGRLSEATQCCQQALSLNPLLVDAHSNLGNLMKAQGLIHEAYSCYLEAVRIQPTFAIAWSNLAGLFMESGDLNRALQYYKEAVKLKPAFPDAYLNLGNVYKALGRPTEAIMCYQHALQMRPNSAMAFGNIASIYYEQGQLDLAIRHYKQALSRDPRFLEAYNNLGNALKDIGRVDEAVRCYNQCLALQPNHPQAMANLGNIYMEWNMMGPASSLFKATLAVTTGLSAPFNNLAIIYKQQGNYSDAISCYNEVLRIDPLAADALVNRGNTYKEIGRVTEAIQDYMHAINFRPTMAEAHANLASAYKDSGHVEAAITSYKQALLLRPDFPEATCNLLHTLQCVCCWEDRSKMFAEVESIIRRQINMSVLPSVQPFHAIAYPIDPILALEISRKYAAHCSIIASRFGLPPFTHPAGLPVKREGGFKRLRIGYVSSDFGNHPLSHLMGSVFGMHNRENVEVFCYALSANDNTEWRQRIQSEAEHFLDVSAMSSDAIAKIINQDKIQILINLNGYTKGARNEIFAMQPAPIQVSYMGFPGTTGATYIDYLVTDEFVSPLQYAHIYSEKLVHLPHCYFVNDYKQKNQDVLDPNSKPKRSDYGLPEDKFIFACFNQLYKMDPEIVNTWCNILKRVPNSALWLLRFPAAGEMRFRTYAAAQGVQPDQIIFTDVAMKSEHIRRSVLADVILDTPLCNGHTTGTDVLWAGVPMITLPLEKMATRVAGSLCLATGLGHGMIVNSLEEYEEKAVSLALNKPKLQALTKELRASRLTCPLFDTMRWVKNLERSYFKMWNLHCSGQQPQHFKVLENDLEFPHDR
Regarding B4, the binding entry in assay [2] and in assay [3] was “no binding” each time.

B5: SKIP (protein, UniProt O80653 1-613)
chain: MKSLNDLPAPKSTTTTYYDHSNDAWFKNRVTESETVKSSSIKFKVVPAYLNRQGLRPKNPEDFGDGGAFPEIHLPQYPLLMGKNKSNKPGAKTLPVTVDAQGNVVFDAIVRQNENSRKIVYSQHKDIIPKFLKNEGDLGTVVDEEEELQKEIQETAEETKAAIEKIVNVRLSAAQPSNIARQSGDSQYIKYKPSQQSSAFNSGAKERIIRMVEMPVDPLDPPKFKHKRVPRASGSPPVPVMHSPPRPVTVKDQQDWKIPPCISNWKNPKGYTIPLDKRLAADGRGLQDVQINDNFAKLSEALYVAEQKAREAVSMRSKVQKEMVMKDKERKEQELRALAQKARSERTGAAMSMPVSSDRGRSESVDPRGDYDNYDQDRGREREREEPQETREEREKRIQREKIREERRRERERERRLDAKDAAMGKKSKITRDRDRDISEKVALGMASTGGKGGGEVMYDQRLFNQDKGMDSGFAADDQYNLYDKGLFTAQPTLSTLYKPKKDNDEEMYGNADEQLDKIKNTERFKPDKAFTGASERVGSKRDRPVEFEKEEEQDPFGLEKWVSDLKKGKKPLDKIGSGGTMRASGGGGSSSRDDDHGGSGRTKINFERSDRR
As to B5, the binding entry in assay [2] and in assay [3] was “binds” in each case.
